The values that follow come from article PMC4564277.

Chains of the proteins cited; added tags and fusions are not shown. Residues count along the entry.
UniProt O24606, 82-352: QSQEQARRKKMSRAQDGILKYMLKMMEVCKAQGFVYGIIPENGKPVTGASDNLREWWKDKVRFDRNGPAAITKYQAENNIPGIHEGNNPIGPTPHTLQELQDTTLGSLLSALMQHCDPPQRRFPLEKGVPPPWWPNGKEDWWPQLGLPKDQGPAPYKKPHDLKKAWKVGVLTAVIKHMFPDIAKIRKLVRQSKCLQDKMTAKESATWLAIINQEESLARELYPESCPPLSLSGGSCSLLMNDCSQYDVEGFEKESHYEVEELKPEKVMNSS
UniProt O24606, 174-306: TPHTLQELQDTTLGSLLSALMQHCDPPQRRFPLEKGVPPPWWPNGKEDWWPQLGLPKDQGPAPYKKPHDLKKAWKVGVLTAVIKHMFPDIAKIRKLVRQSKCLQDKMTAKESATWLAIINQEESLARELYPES
UniProt O24606, 91-306: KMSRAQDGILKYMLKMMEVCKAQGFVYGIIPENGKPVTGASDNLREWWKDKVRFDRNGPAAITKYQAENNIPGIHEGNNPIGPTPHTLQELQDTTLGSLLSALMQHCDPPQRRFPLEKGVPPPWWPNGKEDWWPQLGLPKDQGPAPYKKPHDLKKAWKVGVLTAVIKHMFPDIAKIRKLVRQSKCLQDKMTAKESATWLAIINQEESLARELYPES
UniProt O24606, 114-352: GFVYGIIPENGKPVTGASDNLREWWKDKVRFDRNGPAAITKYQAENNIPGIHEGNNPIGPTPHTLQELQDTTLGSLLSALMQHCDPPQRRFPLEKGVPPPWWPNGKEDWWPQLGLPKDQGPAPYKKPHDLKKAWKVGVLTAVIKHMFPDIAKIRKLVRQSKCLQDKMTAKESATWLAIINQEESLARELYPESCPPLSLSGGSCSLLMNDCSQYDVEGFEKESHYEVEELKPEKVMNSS
UniProt O24606, 141-352: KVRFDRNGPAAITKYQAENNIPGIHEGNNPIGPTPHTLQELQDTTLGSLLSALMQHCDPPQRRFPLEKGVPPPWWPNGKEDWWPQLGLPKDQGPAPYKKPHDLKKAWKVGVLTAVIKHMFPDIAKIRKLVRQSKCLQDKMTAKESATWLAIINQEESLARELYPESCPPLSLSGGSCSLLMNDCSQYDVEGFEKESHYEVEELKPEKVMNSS
UniProt O24606, 35-352: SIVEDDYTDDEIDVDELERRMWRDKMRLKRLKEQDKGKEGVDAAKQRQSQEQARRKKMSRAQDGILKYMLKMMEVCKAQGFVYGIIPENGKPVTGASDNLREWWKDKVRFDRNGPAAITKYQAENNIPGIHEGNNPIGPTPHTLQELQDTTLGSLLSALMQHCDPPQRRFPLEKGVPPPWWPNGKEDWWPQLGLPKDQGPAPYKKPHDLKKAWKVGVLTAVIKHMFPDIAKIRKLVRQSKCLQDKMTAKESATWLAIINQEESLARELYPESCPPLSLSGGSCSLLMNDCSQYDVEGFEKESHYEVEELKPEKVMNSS
UniProt O24606, 46-352: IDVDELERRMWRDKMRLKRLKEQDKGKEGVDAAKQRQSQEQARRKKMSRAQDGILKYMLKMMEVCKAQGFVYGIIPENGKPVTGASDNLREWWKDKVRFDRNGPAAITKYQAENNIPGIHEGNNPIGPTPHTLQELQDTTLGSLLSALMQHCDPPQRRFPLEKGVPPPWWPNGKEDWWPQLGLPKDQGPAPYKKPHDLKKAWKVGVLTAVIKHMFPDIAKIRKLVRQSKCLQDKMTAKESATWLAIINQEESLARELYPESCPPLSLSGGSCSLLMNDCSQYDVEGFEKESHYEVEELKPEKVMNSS

Weaker means in comparison with the reference protein, sequence or condition of that experiment. For some of these results: For at least one entry, the source does not settle the construct or the ends of the probe. For some of these results: At least one verdict was read from the data and is not stated in words by the source.

Experiment in all cases: EMSA
(In general: Mobility shift assays separate free from complexed probe on a gel.)

Data set [1] has as its target EIN3 82-352 (optimal DBD) (Arabidopsis thaliana) (UniProt O24606). To be noted: EMSA: 1 nM biotin probe, 10 mM Tris-HCl pH 7.5, 40 mM KCl, 3 mM MgCl2, 1 mM EDTA, 10% glycerol, 1 mM DTT, 1 ug poly(dI-dC) in 20 uL, room temperature, 30 min; recombinant protein; residues 82-352; protein details: N-terminal His6 (pET-28a); label: 3' biotin on forward strand.
The target in data set [2] is EIN3 174-306 (core DBD) (Arabidopsis thaliana) (UniProt O24606). To be noted: EMSA: 1 nM biotin probe, 10 mM Tris-HCl pH 7.5, 40 mM KCl, 3 mM MgCl2, 1 mM EDTA, 10% glycerol, 1 mM DTT, 1 ug poly(dI-dC) in 20 uL, room temperature, 30 min; recombinant protein; residues 174-306; protein details: N-terminal His6 (pET-28a); label: 3' biotin on forward strand.
In data set [3] the target is EIN3 91-306 (Arabidopsis thaliana) (UniProt O24606). To be noted: EMSA: 1 nM biotin probe, 10 mM Tris-HCl pH 7.5, 40 mM KCl, 3 mM MgCl2, 1 mM EDTA, 10% glycerol, 1 mM DTT, 1 ug poly(dI-dC) in 20 uL, room temperature, 30 min; recombinant protein; residues 91-306; protein details: N-terminal His6 (pET-28a); label: 3' biotin on forward strand.
Data set [4] deals with EIN3 114-352 (Arabidopsis thaliana) (UniProt O24606). To be noted: EMSA: 1 nM biotin probe, 10 mM Tris-HCl pH 7.5, 40 mM KCl, 3 mM MgCl2, 1 mM EDTA, 10% glycerol, 1 mM DTT, 1 ug poly(dI-dC) in 20 uL, room temperature, 30 min; recombinant protein; residues 114-352; protein details: N-terminal His6 (pET-28a); label: 3' biotin on forward strand.
Data set [5] addresses EIN3 141-352 (Arabidopsis thaliana) (UniProt O24606). To be noted: EMSA: 1 nM biotin probe, 10 mM Tris-HCl pH 7.5, 40 mM KCl, 3 mM MgCl2, 1 mM EDTA, 10% glycerol, 1 mM DTT, 1 ug poly(dI-dC) in 20 uL, room temperature, 30 min; recombinant protein; residues 141-352; protein details: N-terminal His6 (pET-28a); label: 3' biotin on forward strand.
Data set [6] has as its target EIN3 35-352 (Arabidopsis thaliana) (UniProt O24606). To be noted: EMSA: 1 nM biotin probe, 10 mM Tris-HCl pH 7.5, 40 mM KCl, 3 mM MgCl2, 1 mM EDTA, 10% glycerol, 1 mM DTT, 1 ug poly(dI-dC) in 20 uL, room temperature, 30 min; recombinant protein; residues 35-352; protein details: N-terminal His6 (pET-28a); label: 3' biotin on forward strand.
Data set [7] deals with EIN3 46-352 (Arabidopsis thaliana) (UniProt O24606). To be noted: EMSA: 1 nM biotin probe, 10 mM Tris-HCl pH 7.5, 40 mM KCl, 3 mM MgCl2, 1 mM EDTA, 10% glycerol, 1 mM DTT, 1 ug poly(dI-dC) in 20 uL, room temperature, 30 min; recombinant protein; residues 46-352; protein details: N-terminal His6 (pET-28a); label: 3' biotin on forward strand.

In the case of “AAGATACATGCGCAAGCGCATGTATCTT (double strand) [GCGC-S10]”, the binding result in data set [1] was “binds”.

As for “AAGATACATTATAAATATAATGTATCTT (double strand) [TATA-S10]”, in data set [1], the binding result was “binds”.

Turning to “AAGATACATGCAAAAAGCATGTATCTT (double strand) [2EBS-S9]”, the binding result in data set [1] is recorded as “binds more weakly”.

Regarding “AAGATACATTGAGGGGTCAATGTATCTT (double strand) [TCA-S10]”, the binding result in data set [1] is listed as “binds”.

As to “AAGATACATGCAAAAAAAGCATGTATCTT (double strand) [2EBS-S11]”, the binding result in data set [1] was “binds more weakly”.

Turning to “AAGATACATGCGAAAACGCATGTATCTT (double strand) [GCG-S10]”, the binding result in data set [1] is recorded as “binds”.

Turning to “GTTGTTTGGGATTCAAGGGGCATGTATCTTGAAT (double strand) [ERF1 3-2]”, the binding result in data set [1] was “binds”.

On to “AAGATACATGCAAAAAAAAGCATGTATCTT (double strand) [2EBS-S12]”, for which the binding result in data set [1] is listed as “binds more weakly”.

Turning to “AAGATACATGCAATTAAGCATGTATCTT (double strand) [TT-S10]”, the binding result in data set [1] is given as “binds”.

As for “AAGATACATGCAAAAAAGCATGTATCTT (double strand) [2EBS-S10]”, the values for the binding result in data set [2] and in data set [3] were “binds more weakly” and “binds”, respectively.

As for “AAGATACATGCAAAAAAAAAAAGCATGTATCTT (double strand) [2EBS-S15]”, the binding result in data set [1] was “binds more weakly”.

“AAGATACATGCAAAAAAAAAAGCATGTATCTT (double strand) [2EBS-S14]”: the binding result in data set [1] was “binds more weakly”.

In the case of “TGTATACATGCAAAAAAGCATGTATACA (double strand) [TGT-S10]”, the binding result in data set [1] was “binds”.

Take “AAGATACATGCAAAAAAAAAGCATGTATCTT (double strand) [2EBS-S13]”: the binding result in data set [1] is “binds more weakly”.

On to “GTTGTTTGGGATTCAAGGGGCATGTATCTTGAATCC (double strand) [ERF1]”, for which the binding result in data set [4], in data set [5], in data set [2], in data set [6], in data set [7] and in data set [3] was “binds more weakly” each time.

As for “AAGATACATGCAAAGCATGTATCTT (double strand) [2EBS-S7]”, the binding result in data set [1] is “binds more weakly”.

As to “GTTGTTTGGGATTCAAGGGGCATGTATCTT (double strand) [ERF1 3-6]”, in data set [1], the binding result is given as “binds”.

Consider “GTTGTTTGGGATTCAAGGGGCATGTATCTTGA (double strand) [ERF1 3-4]”, for which the binding result in data set [1] is reported as “binds”.

In the case of “GTTGTTTGGGATTGAAGGGGCATGTATCTTGAATCC (double strand) [ERF1 m1]”, the binding result in data set [1] is listed as “binds”.

Turning to “AAGATACATTAGGGGGGTAATGTATCTT (double strand) [TA-S10]”, in data set [1], the binding result is given as “binds”.

On to “GTTGTTTGGGAGTGAAGGGGCATGTATCTTGAATCC (double strand) [ERF1 m2]”, for which, in data set [1], the binding result is recorded as “binds”.

Consider “AAGATACATGCAAGCATGTATCTT (double strand) [2EBS-S6]”, for which the binding result in data set [1] is listed as “binds more weakly”.
